Measurements as given in PMC7039881.
Results are given in words; binding and its absence hold for the method and conditions named. Binding seen in cells or lysates may run through a third protein. For some assays here: Binding calls can cover weak binding; strength is not graded here. Sequences can lack the tags named with a protein.

By UniProt entry, the sequences of proteins in these tests, tags left out. Where a name states a change or a piece, a line headed by the entry shows the natural chain unless it says otherwise.
UniProt Q96G97: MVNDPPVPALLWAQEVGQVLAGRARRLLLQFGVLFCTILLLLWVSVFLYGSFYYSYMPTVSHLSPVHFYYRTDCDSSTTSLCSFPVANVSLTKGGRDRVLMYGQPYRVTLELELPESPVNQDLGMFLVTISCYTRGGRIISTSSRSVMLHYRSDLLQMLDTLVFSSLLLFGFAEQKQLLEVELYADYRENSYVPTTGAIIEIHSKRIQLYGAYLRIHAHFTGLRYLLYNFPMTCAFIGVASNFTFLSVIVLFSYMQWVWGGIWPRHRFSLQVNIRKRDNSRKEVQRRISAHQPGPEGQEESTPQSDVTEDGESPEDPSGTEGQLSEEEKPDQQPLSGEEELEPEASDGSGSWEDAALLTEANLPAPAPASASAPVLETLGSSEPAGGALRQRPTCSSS

T1: FLAG-GPAT3 (human) (UniProt Q53EU6)
T1 sequence: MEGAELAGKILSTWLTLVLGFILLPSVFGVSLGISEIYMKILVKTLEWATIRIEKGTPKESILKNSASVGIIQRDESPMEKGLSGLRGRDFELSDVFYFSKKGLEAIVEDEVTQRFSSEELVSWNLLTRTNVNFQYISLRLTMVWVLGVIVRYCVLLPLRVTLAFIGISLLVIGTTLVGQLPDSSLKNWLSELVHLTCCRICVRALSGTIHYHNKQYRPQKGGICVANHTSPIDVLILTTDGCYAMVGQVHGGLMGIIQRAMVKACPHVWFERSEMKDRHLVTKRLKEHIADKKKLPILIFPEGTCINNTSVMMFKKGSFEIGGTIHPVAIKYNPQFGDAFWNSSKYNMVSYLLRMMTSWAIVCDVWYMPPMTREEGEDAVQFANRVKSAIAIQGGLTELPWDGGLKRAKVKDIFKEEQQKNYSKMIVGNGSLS


Experiments:
FLAG-GPAT3 (human) = biological target: T1, FLAG-GPAT3 (human); experiment: co-IP; HEK293 cells co-transfected, lysed 48 h later in ODG lysis buffer (50 mM n-octyl-β-D-glucopyranoside, 50 mM Tris pH 6.8, 150 mM NaCl, 1 mM EDTA); anti-FLAG-agarose beads 2 h at 4 °C, eluted with 3xFLAG peptide; immunoblot for FLAG and Myc
[1] = biological target: N-terminal FLAG-tagged seipin T78A (human) (UniProt Q96G97); experiment: as above
[2] = biological target: FLAG-tagged human seipin, long form (L) (human); experiment: as above
[3] = biological target: Yn-seipin (N-terminal fragment of YFP fused to the N terminus of seipin) (human) (UniProt Q96G97); experiment: split reporter; BiFC of seipin and GPAT3 half-YFP fusions in HEK293 cells; 37 °C 4 h, 32 °C 20 h, 30 °C 2 h; fixed cells, YFP fluorescence
[4] = biological target: seipin-Yn (N-terminal fragment of YFP fused to the C terminus of seipin) (human) (UniProt Q96G97); experiment: as above
[5] = biological target: seipin-Yn (N-terminal fragment of YFP fused to the C terminus of seipin) (human) (UniProt Q96G97); experiment: split reporter; BiFC in 3T3-L1 preadipocytes co-transfected at the induction of differentiation, fixed at day 3; temperature shift to form YFP

Molecule | binding (FLAG-GPAT3 (human)) | binding [2] | binding [3] | binding [4] | binding [5] | also measured
Myc-seipin lacking the C-terminus (ΔCT) (human) (domain or fragment) | binds | – | – | – | – | –
Myc-seipin lacking the N-terminus (ΔNT) (human) (domain or fragment) | binds | – | – | – | – | –
Myc-tagged human GPAT3 (GPAT3-Myc) (enzyme, UniProt Q53EU6 1-434) MEGAELAGKILSTWLTLVLGFILLPSVFGVSLGISEIYMKILVKTLEWATIRIEKGTPKESILKNSASVGIIQRDESPMEKGLSGLRGRDFELSDVFYFSKKGLEAIVEDEVTQRFSSEELVSWNLLTRTNVNFQYISLRLTMVWVLGVIVRYCVLLPLRVTLAFIGISLLVIGTTLVGQLPDSSLKNWLSELVHLTCCRICVRALSGTIHYHNKQYRPQKGGICVANHTSPIDVLILTTDGCYAMVGQVHGGLMGIIQRAMVKACPHVWFERSEMKDRHLVTKRLKEHIADKKKLPILIFPEGTCINNTSVMMFKKGSFEIGGTIHPVAIKYNPQFGDAFWNSSKYNMVSYLLRMMTSWAIVCDVWYMPPMTREEGEDAVQFANRVKSAIAIQGGLTELPWDGGLKRAKVKDIFKEEQQKNYSKMIVGNGSLS | – | binds | – | – | – | binding [1]: binds
Myc-tagged human GPAT4 (GPAT4-Myc) (enzyme, UniProt Q86UL3 38-456) VSFGIRKLYMKSLLKIFAWATLRMERGAKEKNHQLYKPYTNGIIAKDPTSLEEEIKEIRRSGSSKALDNTPEFELSDIFYFCRKGMETIMDDEVTKRFSAEELESWNLLSRTNYNFQYISLRLTVLWGLGVLIRYCFLLPLRIALAFTGISLLVVGTTVVGYLPNGRFKEFMSKHVHLMCYRICVRALTAIITYHDRENRPRNGGICVANHTSPIDVIILASDGYYAMVGQVHGGLMGVIQRAMVKACPHVWFERSEVKDRHLVAKRLTEHVQDKSKLPILIFPEGTCINNTSVMMFKKGSFEIGATVYPVAIKYDPQFGDAFWNSSKYGMVTYLLRMMTSWAIVCSVWYLPPMTREADEDAVQFANRVKSAIARQGGLVDLLWDGGLKREKVKDTFKEEQQKLYSKMIVGNHKDRSRS | – | binds | – | – | – | –
GPAT3-Yc (C-terminal fragment of YFP fused to the C terminus of GPAT3-Myc) (enzyme, UniProt Q53EU6 1-434) MEGAELAGKILSTWLTLVLGFILLPSVFGVSLGISEIYMKILVKTLEWATIRIEKGTPKESILKNSASVGIIQRDESPMEKGLSGLRGRDFELSDVFYFSKKGLEAIVEDEVTQRFSSEELVSWNLLTRTNVNFQYISLRLTMVWVLGVIVRYCVLLPLRVTLAFIGISLLVIGTTLVGQLPDSSLKNWLSELVHLTCCRICVRALSGTIHYHNKQYRPQKGGICVANHTSPIDVLILTTDGCYAMVGQVHGGLMGIIQRAMVKACPHVWFERSEMKDRHLVTKRLKEHIADKKKLPILIFPEGTCINNTSVMMFKKGSFEIGGTIHPVAIKYNPQFGDAFWNSSKYNMVSYLLRMMTSWAIVCDVWYMPPMTREEGEDAVQFANRVKSAIAIQGGLTELPWDGGLKRAKVKDIFKEEQQKNYSKMIVGNGSLS | – | – | no binding | binds | binds | –
Yc-GPAT3 (C-terminal fragment of YFP fused to the N terminus of GPAT3-Myc) (enzyme, UniProt Q53EU6 1-434) MEGAELAGKILSTWLTLVLGFILLPSVFGVSLGISEIYMKILVKTLEWATIRIEKGTPKESILKNSASVGIIQRDESPMEKGLSGLRGRDFELSDVFYFSKKGLEAIVEDEVTQRFSSEELVSWNLLTRTNVNFQYISLRLTMVWVLGVIVRYCVLLPLRVTLAFIGISLLVIGTTLVGQLPDSSLKNWLSELVHLTCCRICVRALSGTIHYHNKQYRPQKGGICVANHTSPIDVLILTTDGCYAMVGQVHGGLMGIIQRAMVKACPHVWFERSEMKDRHLVTKRLKEHIADKKKLPILIFPEGTCINNTSVMMFKKGSFEIGGTIHPVAIKYNPQFGDAFWNSSKYNMVSYLLRMMTSWAIVCDVWYMPPMTREEGEDAVQFANRVKSAIAIQGGLTELPWDGGLKRAKVKDIFKEEQQKNYSKMIVGNGSLS | – | – | no binding | no binding | no binding | –
